Source: US7727950B2, “Methods and reagents for assaying protein kinase activity” (The University of Dundee, priority 2002, dated 2010)
Part of at least one peptide drawing is inferred or uncertain, most often the ends. Ends that are not written are not given here.

Biological target: T1, PRAK (Homo sapiens, UniProt Q8IW41)
T1 construct: made in house; host or cells: Sf21 insect cells
T1 sequence (Q8IW41 1-473): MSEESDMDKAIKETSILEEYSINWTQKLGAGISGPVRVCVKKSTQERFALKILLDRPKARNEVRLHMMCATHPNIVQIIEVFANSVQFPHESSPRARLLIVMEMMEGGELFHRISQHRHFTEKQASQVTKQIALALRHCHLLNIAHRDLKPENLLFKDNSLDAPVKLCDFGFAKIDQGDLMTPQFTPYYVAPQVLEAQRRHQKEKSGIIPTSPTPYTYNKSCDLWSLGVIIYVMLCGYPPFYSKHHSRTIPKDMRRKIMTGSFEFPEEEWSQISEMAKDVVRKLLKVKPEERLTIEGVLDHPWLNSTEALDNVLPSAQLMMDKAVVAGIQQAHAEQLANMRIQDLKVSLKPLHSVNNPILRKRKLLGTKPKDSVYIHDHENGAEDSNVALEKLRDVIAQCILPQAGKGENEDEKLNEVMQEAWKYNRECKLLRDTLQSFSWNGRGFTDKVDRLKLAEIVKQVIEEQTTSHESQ
Test: Kinetic parameters for peptide phosphorylation, radioactive filter-binding assay
Assay type: biochemical
Conditions: relative to Standard Substrate KKLRRTLSVA
Text: Apart from the AMP-activated protein kinase (AMPK, a gift from Drs S. Hawley and D. G. Hardie), cGMP-dependent protein kinase (PKG, a generous gift from Drs Susan Lohmann and Ulrich Walter, University of Wurzburg, Germany) and the catalytic subunit of cyclic AMP-dependent protein kinase (PKA, a gift from Dr C. Smythe), which were isolated from rat liver, bovine lung and bovine heart, respectively, all other protein kinases were expressed as either GST-fusion or His-tagged proteins (by a person, a person, Dr A. Paterson or a person, in this Division). The expressed proteins all corresponded to the human sequences apart from the rat Rho-dependent protein kinase (ROCK-II) and rat mitogen-activated protein kinase (MAPK) activated kinase-1a (MAPKAP-K1a, also called RSK). GST-fusion proteins were purified on GSH-agarose (Amersham Pharmacia Biotech, Amersham, UK) and His-tagged proteins on Ni-NTA agarose (Qiagen) essentially according to the manufacturer's instructions. All the protein kinases used in this study are available from Upstate Biotechnology Inc. (Lake Placid, N.Y., USA), apart from the α-isoform of calmodulin-dependent protein kinase II (CaMKII), MAPKAP-K3 and PKG.
The following enzymes were expressed in Sf21 cells: Checkpoint Kinase 1 (CHK1), p38 regulated/activated kinase (PRAK), protein kinase Bα (PKBα), MAPKAP-K1a and serum and glucocorticoid-induced kinase 1 (SGK1[S422D] and lacking the N-terminal 59 residues), mitogen and stress-activated protein kinase 1 (MSK1), p70 ribosomal S6 kinase 1 (S6K1[T412E], lacking the C-terminal 104 residues), c-Raf, protein kinase C (PKCα, Calbiochem Novachem Corp.), rat ROCKII[1-543].
MAPKAP-K2 and MAPKAP-K3 were activated with incubation with MgATP and extracellular signal regulated protein kinase-2 (ERK2); ERK2 with MAPK kinase-1 (MKK1); MKK1 with Raf; SAPK2a/p38 with MKK6; PRAK with SAPK2a/p38; PKBA, SGK1 and S6K1 with PDK1.
All protein kinase assays were linear with respect to time. The assays with standard peptide substrates have been described previously. The assays with the three generic peptides introduced in this example were carried out in the same buffers as follow. Unlabelled or biotinylated substrate peptides were assayed for 10 min at 30° C. in 50 μl incubations, in the presence of 0.1 mM [y^32P]ATP or unlabelled ATP. […] All papers were subsequently washed a further three times in phosphoric acid, once in acetone, then dried and counted for radioactivity. […] The plates were then washed six times (five min per wash) in PBS, 0.1% Tween 20 and binding of the phospho-specific antibody detected by incubating the plates with peroxidase-conjugated anti-sheep antibodies (Pierce). […] Signals were quantitated on LAS-1000IR software (FujiFilm). […]

RARTLSFAEPG
Relative Vmax: 40%
